From PMC5833403 come the findings set out here.

The chains behind the UniProt entries cited, without tags or fusion partners.
UniProt P26361: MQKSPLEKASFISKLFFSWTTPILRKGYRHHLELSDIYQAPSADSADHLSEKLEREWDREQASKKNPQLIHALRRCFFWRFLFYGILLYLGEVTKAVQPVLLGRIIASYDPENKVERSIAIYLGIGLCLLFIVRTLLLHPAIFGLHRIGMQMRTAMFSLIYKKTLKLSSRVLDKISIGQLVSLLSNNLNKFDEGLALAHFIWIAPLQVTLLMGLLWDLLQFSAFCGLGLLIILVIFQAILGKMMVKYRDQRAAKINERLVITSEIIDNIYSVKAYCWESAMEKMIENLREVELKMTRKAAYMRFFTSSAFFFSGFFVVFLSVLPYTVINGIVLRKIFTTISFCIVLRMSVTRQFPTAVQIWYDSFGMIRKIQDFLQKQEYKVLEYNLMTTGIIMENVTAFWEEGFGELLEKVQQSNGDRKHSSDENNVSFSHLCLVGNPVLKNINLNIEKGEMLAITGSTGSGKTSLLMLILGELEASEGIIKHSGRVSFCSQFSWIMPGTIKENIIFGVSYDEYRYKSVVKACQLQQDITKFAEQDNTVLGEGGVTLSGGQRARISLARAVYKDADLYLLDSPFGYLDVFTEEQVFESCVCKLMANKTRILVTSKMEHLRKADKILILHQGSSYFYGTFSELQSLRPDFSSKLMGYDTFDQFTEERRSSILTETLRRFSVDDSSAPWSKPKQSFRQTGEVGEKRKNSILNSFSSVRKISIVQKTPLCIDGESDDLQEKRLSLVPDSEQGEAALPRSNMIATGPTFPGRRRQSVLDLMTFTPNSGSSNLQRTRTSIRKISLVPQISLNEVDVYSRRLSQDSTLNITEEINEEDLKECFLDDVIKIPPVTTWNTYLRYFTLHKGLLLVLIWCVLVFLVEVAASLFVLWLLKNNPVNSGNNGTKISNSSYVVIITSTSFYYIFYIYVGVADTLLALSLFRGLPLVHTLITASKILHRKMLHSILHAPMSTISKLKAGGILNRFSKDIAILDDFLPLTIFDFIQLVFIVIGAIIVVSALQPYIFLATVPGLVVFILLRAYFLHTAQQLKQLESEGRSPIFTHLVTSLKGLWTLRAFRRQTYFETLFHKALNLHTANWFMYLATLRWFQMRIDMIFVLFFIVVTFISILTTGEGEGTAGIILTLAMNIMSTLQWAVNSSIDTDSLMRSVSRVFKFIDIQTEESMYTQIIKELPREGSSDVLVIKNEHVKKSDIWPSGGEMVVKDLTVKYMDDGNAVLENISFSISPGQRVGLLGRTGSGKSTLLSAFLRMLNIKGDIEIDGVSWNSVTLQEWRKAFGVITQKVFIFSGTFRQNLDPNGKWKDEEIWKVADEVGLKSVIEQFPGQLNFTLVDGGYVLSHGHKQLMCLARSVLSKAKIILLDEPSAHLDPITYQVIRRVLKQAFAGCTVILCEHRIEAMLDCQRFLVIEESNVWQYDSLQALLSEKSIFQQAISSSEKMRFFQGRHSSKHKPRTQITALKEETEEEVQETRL

The target in test [1] is T1, Dvl2, endogenous in mouse bone marrow (mouse (endogenous in bone marrow)) (UniProt Q60838).
T1 sequence: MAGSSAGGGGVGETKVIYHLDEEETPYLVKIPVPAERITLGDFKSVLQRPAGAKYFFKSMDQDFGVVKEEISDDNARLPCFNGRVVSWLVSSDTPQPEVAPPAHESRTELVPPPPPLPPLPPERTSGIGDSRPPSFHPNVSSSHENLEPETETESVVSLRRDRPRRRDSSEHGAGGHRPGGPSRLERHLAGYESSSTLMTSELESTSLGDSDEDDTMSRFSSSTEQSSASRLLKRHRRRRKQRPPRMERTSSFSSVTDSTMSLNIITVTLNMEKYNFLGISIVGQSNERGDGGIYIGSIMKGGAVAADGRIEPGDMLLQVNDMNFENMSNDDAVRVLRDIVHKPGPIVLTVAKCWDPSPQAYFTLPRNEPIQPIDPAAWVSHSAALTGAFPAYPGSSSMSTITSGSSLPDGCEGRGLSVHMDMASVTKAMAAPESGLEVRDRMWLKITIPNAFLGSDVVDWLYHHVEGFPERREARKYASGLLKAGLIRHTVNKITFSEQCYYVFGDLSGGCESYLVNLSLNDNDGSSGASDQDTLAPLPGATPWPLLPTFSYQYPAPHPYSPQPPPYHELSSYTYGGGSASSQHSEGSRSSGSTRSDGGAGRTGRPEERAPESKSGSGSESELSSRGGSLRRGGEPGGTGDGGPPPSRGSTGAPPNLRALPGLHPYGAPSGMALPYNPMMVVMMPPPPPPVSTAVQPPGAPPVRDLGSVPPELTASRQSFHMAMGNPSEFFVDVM
Nature of the test: co-IP; endogenous proteins in mouse bone marrow, reciprocal.

Test [2] concerns the target T2, Dishevelled 2 (Dvl2), endogenous in zebrafish embryos (zebrafish (endogenous in embryos)) (UniProt Q803Q5).
T2 sequence: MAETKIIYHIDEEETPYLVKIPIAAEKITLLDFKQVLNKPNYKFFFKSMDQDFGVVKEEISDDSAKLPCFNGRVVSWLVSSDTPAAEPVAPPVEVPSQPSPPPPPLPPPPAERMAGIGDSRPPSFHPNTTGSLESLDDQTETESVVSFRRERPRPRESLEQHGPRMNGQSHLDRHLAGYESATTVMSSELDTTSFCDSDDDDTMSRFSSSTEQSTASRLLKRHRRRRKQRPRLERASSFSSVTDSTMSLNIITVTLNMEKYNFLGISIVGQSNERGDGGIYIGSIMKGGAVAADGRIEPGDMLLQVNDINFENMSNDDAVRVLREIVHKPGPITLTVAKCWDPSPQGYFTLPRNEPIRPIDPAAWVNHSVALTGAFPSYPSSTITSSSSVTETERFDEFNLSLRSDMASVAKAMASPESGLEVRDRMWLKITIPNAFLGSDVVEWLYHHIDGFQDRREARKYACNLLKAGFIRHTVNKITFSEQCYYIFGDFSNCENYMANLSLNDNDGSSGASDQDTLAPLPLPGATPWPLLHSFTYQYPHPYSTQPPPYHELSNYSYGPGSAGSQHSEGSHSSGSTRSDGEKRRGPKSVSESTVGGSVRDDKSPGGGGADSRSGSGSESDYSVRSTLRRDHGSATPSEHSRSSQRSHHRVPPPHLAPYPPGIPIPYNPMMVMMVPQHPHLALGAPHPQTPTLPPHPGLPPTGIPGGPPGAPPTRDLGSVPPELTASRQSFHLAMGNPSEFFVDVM
Nature of the test: co-IP; endogenous proteins in zebrafish embryos (Cftr-Dvl2: reciprocal, 5 hpf; Dvl2-Dpr1: wild type and cftr mutant embryos).

These are yes or no findings as the source states them, for the method shown. In cells and extracts the contact can be indirect. Some results given as binding are weak or reduced against the parent protein; the word gives no strength.

For the molecule “Cftr, endogenous in mouse bone marrow (from UniProt P26361 1-1476)”, in test [1], the binding entry is given as “binds”.

B1: Dapper1 (Dpr1), endogenous in zebrafish embryos (protein, UniProt Q6QZN6 1-821)
chain: MNEWSEMLVCRDYCALMMRDRKECDARCCRDGEGERVRARERLDATVAGLTELEYLRQRQELLVRSVLSCPEAAGQDKPCLTVDDSYLNTEEKLLEENILLLRKQLNCLRRRDAGLINQLQELDRQISDLRLDTETSHEHVETDSRPSSGFYDLSDGASGSLSNSSNSVFSECLSSCRSTTCLCTPLDTSLCASEGRLKPADDPGSCAECDCHCEDSSSGTVRRSLSASYSPSPDSSCDGISKFHCDLIAKNGNDVYRYPSPLHAVAVQSPIFIQSMTSHLKDDCNFSKPGEALNDEQKPEQVVGSQTSSWHASQMLPNKKLDSYIYGLLQRRAQPLRTNKPRTSINTDPSKSILRQASLCSRAPASVQAQQWTSDLKPNWQTCLQDASATSTEPSTASPQRQWSAESKGGTPQNGAYLSSSQPQNSYSTTNENTNCLLKKKVSGTSKGQLLSATPKDCPDLGSPKAVSSPKLNKHCFYNVEDNKTGQAMKASPLKRSPKTQTSLSCGKDSEQLAQELVSLGSSSQSQDEGGPLVSAQYIPAQKQNVNLQKGGTKNIKIVKVKNSASSKSRPQVFEHVSETVRDKHRTGSRRTRQVDEVHHLHKSSKKASAKTKRIPASIPEGRILERHTSSSGARSSAQRHHGHHRHHEAVLAKPKYKRNDFHRRPRGLHEIPYEEAYRRAHRRQKREMLSHMYLPSNAHYTSPYAYVGSDSEYSAECASLFHSTILDTSEDERSNYTTNCFGDSESSASEADYVAESSTSSDSEGSAGVNWRQISQAGSGSHGMTSAQAKAFVKIKASHNLKKKILRFRSGSLKLMTTV
In the case of B1, the binding entry in test [2] is “binds”.
